Data as given in PubChem BioAssay AID1259306 (Sanger Institute, 2017).

Screen: 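Kinases needed for viability and knock-downs that synergise with BYL719, cetuximab or trametinib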 (primary screen)
Cell system: human SNU-C5 colorectal cancer cells
Reagent: siRNA pool against human genes
Conditions: DMSO vehicle alone, or one anchor drug: BYL719 at 1 µM, cetuximab at 5 µg/ml or trametinib at 10 nM, given 24 h into the assay
Measurement: 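Viability versus non-targeting pool averaged across replicates, given as fraction and robust z-score, and synergy scores for BYL719, cetuximab or trametinib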
Scale: robust z-score, knock-down alone: higher = more viable cells
Call rule: 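Called essential when the robust z-score for knock-down alone is below -3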
Calls: active = essential (knock-down alone); inactive = no change alone
This is one part, drawn at random, of 794 reagents. In the full data, 11 (1.4%) got an active call. 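Calls reflect knock-down alone; synergy scores play no part, so knock-downs synergising with a drug can be called no change.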 A number with no mark means an inactive call. Not all columns of the deposit are shown. Not stated in the record: the amount of reagent, the time to read-out.

no.	target gene	PubChem SID	robust z-score, knock-down alone
1	TAOK1 (GeneID 57551)	SID152151735	0.122
2	CHD9 (GeneID 80205)	SID152154196	-0.946
3	IRAK3 (GeneID 11213)	SID56478864	-1.8
4	PRKAG3 (GeneID 53632)	SID56479232	-2.95
5	POMK (GeneID 84197)	SID56479008	0.468
6	MARK3 (GeneID 4140)	SID56478669	-0.238
7	PASK (GeneID 23178)	SID56478950	0.914
8	PTEN (GeneID 5728)	SID152153158	0.0422
9	ALK (GeneID 238)	SID56478483	-0.219
10	WNK4 (GeneID 65266)	SID56478961	0.989
11	MAP3K13 (GeneID 9175)	SID56478694	0.78
12	POLR2B (GeneID 5431)	SID134315545	-4.09 (active)

2 successive entries from above:
no.	target gene	PubChem SID	robust z-score, knock-down alone
8	PTEN (GeneID 5728)	SID152153158	0.0422
9	ALK (GeneID 238)	SID56478483	-0.219

Further entries:
no.	target gene	PubChem SID	robust z-score, knock-down alone
13	TSSK2 (GeneID 23617)	SID56479050	0.877
14	PTK7 (GeneID 5754)	SID135620629	-3.05 (active)
15	SOS2 (GeneID 6655)	SID152153288	0.692
16	ARID1A (GeneID 8289)	SID152147093	-0.597
17	STAG2 (GeneID 10735)	SID152146952	-0.211
18	NTRK3 (GeneID 4916)	SID135620627	0.989
19	CLK2 (GeneID 1196)	SID152151259	0.953
20	PANK3 (GeneID 79646)	SID56479122	0.824
